Data published in publication PMC4211646.
Results are given in words; binding and its absence hold for the method and conditions named. Binding can be weak; no strength is given.

Protein sequences, listed by entry. Tags and fused reporters are not part of them. Lines headed by an entry give the natural chain unless they say otherwise; changes in a name come on top.
UniProt B8H092: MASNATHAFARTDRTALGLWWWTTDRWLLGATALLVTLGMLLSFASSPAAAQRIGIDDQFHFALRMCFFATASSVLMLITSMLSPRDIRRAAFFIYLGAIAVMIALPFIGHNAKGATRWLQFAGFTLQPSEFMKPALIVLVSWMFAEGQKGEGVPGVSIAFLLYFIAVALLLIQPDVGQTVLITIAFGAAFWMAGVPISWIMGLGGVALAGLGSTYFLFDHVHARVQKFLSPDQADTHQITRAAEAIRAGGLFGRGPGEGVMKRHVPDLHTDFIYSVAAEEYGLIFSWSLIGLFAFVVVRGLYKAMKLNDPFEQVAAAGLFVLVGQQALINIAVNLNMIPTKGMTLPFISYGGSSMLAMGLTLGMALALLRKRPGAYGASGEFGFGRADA
UniProt B8GX61: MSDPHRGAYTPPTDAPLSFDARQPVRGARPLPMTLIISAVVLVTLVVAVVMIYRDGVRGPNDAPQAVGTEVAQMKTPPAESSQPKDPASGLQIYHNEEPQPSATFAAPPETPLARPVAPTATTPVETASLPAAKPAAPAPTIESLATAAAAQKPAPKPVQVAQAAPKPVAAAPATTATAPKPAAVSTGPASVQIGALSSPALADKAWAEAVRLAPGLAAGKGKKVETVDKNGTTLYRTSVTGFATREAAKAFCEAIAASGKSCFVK

Biological target: FtsW (Caulobacter crescentus) (UniProt B8H092)
Assay: two-hybrid; bacterial two-hybrid (adenylate cyclase T25 and T18 fusions) in E. coli BTH101; T25 fusion from the low-copy plasmid pKT25; colonies from LB restruck on MacConkey agar with maltose, red streaks are positive

FtsN (from UniProt B8GX61) was tested, and the binding was “binds”.
